The exact form of at least one protein or probe is not confirmed.
Biological target: PSMA on LNCaP cells (prostate specific membrane antigen) (Homo sapiens) (UniProt Q04609)
Experiment: activity in cells
Conditions: RNA aptamer with 10 T deoxynucleotides appended at 3' end, reverse (3'-3') linkage at 3' terminus as stated (3'->5'), rapid uptake in nearly all LNCaP (PSMA+) cells at 1 uM, 15-45 min, limited to small percentage of PSMA-negative PC3 cells, protein on the cell surface, protein details: endogenous

By UniProt entry, the sequences of proteins in these tests, tags left out. Where a name states a change or a piece, a line headed by the entry shows the natural chain unless it says otherwise.
UniProt Q04609: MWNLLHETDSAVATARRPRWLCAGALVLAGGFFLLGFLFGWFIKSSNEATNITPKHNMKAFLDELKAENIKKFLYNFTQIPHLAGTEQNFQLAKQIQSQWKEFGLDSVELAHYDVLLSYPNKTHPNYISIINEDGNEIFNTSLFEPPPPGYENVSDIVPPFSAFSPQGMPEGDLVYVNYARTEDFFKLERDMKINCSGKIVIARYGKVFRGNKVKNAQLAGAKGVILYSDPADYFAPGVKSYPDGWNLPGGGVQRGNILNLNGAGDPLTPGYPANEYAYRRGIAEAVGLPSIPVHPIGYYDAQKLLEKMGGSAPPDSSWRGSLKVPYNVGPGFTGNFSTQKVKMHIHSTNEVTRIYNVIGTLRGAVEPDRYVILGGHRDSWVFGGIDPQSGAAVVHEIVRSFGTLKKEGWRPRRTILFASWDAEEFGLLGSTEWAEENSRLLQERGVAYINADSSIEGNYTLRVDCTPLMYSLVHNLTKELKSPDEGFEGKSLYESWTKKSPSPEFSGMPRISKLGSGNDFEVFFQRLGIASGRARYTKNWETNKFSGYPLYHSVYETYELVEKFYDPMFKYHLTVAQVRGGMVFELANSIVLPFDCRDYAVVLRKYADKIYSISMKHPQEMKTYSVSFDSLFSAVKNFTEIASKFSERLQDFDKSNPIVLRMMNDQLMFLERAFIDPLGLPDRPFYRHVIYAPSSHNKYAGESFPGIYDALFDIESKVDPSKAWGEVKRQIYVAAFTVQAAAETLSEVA

“GGGAGGACGAUGCGGAUCAGCCAUGUUUACGUCACUCCUUGUCAAUCCUCAUCGGCTTTTTTTTTT [5'-FAM-A10-3:T[10]]” was tested. Which “functional effect of the aptamer” value did it give?
Its value is “active”.

From patent US20080026947
